Data taken from paper PMC6684655.
Results are given in words; binding and its absence hold for the method and conditions named. Binding seen in cells or lysates may run through a third protein. Some results given as binding are weak or reduced against the parent protein; the word gives no strength.

Protein sequences, listed by entry. Tags and fused reporters are not part of them.
UniProt Q9WV30: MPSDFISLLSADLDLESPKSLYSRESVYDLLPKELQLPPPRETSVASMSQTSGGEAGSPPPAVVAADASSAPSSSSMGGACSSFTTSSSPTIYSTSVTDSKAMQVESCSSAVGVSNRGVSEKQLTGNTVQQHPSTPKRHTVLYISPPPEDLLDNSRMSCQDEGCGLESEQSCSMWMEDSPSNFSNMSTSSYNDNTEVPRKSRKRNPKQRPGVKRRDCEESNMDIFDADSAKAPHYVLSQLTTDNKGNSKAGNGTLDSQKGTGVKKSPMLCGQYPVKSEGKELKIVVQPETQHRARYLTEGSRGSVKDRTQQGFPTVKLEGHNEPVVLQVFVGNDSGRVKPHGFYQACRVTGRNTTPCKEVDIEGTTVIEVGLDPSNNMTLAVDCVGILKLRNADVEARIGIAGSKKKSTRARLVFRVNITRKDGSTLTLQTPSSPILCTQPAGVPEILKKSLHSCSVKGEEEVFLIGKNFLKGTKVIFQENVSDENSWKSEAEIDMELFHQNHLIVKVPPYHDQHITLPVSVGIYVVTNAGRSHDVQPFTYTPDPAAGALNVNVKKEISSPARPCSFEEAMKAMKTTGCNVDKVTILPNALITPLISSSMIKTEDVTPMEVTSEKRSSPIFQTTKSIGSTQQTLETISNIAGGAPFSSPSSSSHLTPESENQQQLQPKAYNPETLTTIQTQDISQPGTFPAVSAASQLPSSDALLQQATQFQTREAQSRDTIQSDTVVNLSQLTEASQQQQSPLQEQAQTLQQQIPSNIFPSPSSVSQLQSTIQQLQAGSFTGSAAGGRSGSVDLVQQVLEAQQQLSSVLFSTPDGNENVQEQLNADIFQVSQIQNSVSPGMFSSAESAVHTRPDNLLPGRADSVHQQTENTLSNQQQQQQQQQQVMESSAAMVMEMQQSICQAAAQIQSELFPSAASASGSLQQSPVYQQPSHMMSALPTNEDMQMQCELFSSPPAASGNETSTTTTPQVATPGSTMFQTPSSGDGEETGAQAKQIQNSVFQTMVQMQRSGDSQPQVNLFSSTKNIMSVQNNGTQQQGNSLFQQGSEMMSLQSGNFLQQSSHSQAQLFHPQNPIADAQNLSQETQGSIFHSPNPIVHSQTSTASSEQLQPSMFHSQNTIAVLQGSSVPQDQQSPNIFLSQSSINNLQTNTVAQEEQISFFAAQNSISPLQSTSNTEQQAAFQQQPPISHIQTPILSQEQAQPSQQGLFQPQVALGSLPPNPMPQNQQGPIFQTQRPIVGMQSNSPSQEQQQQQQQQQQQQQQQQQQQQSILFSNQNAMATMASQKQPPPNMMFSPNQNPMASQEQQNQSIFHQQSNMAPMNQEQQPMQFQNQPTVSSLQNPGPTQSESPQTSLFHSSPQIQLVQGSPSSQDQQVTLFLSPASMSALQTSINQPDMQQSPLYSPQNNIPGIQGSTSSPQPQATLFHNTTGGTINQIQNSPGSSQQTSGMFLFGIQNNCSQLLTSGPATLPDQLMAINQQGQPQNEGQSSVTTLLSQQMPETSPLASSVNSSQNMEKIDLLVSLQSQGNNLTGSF
UniProt P13864: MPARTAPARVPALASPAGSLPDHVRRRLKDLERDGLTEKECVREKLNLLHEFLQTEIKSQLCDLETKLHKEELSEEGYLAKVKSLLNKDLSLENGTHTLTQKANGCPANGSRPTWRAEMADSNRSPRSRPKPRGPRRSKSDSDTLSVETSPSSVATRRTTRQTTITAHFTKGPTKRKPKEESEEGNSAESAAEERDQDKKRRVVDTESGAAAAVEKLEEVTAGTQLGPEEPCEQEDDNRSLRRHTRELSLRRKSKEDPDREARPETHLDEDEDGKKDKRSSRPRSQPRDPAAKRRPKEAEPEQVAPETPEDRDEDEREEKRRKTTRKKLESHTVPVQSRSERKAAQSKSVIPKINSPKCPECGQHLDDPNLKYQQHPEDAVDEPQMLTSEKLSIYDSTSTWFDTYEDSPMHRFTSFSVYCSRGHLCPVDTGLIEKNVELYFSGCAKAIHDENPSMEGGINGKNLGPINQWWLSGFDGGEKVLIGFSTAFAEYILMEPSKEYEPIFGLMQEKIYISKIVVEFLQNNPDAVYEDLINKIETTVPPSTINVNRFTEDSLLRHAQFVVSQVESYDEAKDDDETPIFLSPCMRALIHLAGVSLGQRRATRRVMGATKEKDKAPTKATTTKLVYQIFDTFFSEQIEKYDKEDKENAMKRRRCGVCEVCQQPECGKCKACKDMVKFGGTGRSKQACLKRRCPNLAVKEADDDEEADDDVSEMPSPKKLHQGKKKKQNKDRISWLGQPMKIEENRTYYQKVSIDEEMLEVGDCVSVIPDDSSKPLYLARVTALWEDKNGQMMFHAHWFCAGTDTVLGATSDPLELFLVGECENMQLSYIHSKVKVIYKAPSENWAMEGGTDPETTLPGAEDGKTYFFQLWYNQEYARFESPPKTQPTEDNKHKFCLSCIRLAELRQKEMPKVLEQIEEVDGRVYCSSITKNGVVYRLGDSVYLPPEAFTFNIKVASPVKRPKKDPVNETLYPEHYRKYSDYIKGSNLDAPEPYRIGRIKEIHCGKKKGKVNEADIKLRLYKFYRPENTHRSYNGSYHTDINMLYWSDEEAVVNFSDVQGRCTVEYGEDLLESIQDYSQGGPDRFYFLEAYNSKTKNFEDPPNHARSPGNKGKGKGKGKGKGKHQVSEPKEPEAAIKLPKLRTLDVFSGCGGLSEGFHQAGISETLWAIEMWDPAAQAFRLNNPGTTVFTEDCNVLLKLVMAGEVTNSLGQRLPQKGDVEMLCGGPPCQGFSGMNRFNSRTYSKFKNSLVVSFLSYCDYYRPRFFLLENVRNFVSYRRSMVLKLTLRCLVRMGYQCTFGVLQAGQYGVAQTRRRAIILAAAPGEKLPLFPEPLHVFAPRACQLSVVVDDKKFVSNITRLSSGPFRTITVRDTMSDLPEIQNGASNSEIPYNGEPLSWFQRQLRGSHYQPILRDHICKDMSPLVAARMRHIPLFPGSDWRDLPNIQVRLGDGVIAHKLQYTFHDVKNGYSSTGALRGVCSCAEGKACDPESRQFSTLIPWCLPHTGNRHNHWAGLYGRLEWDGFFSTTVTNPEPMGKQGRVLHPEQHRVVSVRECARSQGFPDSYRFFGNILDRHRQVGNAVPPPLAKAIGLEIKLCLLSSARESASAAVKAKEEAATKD

Target: Tonicity-responsive enhancer-binding protein (TonEBP) (mouse (endogenous in 3T3-L1)) (UniProt Q9WV30)
Test: co-IP; total lysates of 3T3-L1 adipocytes in RIPA buffer; antibody overnight at 4 °C, protein A/G agarose beads 2 h, three washes with RIPA buffer; immunoblot with anti-DNMT1 and anti-TonEBP

binding: binds
Substance: DNMT1 DNA methylase (from UniProt P13864 1-1620) (enzyme)
